The test in a line: qHTS Assay for Modulators of Lamin A Splicing. The note with it: HeLa LMNA splicing GFP/RFP minigene ratio, 48 h. The procedure, abridged: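 Read-out is the ratio of GFP to DsRed2 object intensity, acquired by 488 nm laser-scanning cytometry on HeLa lamin A-EGFP minigene reporter cells. Compound incubation 48 hrs at 37 °C in Opti-MEM with 2% FBS; DMSO 0.5% final.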
Setting [1] is: measured here: GFP splicing reporter channel.
The mark [2] stands for this setting: measured here: RFP viability control channel.

Several values for one entry are separate records, joined by “and”; a condition that tells them apart may be missing. Identical values can stand only once. The list shows a part of the results. The main result of the screen is listed elsewhere. These columns were measured beside it and carry no call. Compounds called inactive in the main read-out are mostly missing here. Potencies come from curve fits of mixed quality, noted in brackets.

As for `O=S(=O)(NCc1ccc2c(c1)OCO2)c1ccc2c(c1)oc1ccccc12`, the AC50 was 17.8 µM [rising, single point] under setting [1] and 25.1 µM [rising, partial curve] under setting [2].
As to `COc1ccc(NC(=O)Cn2c(=O)c3cccn3c3ccccc32)cc1Cl`, the AC50 under setting [1] is 0.0141 µM [rising, full curve, poor fit].
Consider `CCCNc1c(NC(C)=O)c(=O)oc2ccccc12`, for which the AC50 under setting [2] was 35.5 µM [rising, single point].
`O=C(Nc1ccc(-c2nc3ccccc3o2)c(O)c1)c1ccccc1`: the AC50 under setting [1] was 1.12 µM [rising, partial curve].
For `O=C(/C=C/c1ccc(F)cc1)NCCc1ccc2c(c1)OCCO2`, under setting [2], the AC50 was 0.316 µM [rising, single point].
Take `Cc1cc(C)cc(NC(=O)CN2CCCN(S(=O)(=O)c3ccc(Br)s3)CC2)c1`: the AC50 under setting [1] was 17.8 µM [rising, single point].
Take `CC1CCN(c2nc(-c3ccncc3)nc3ccccc23)CC1`: the AC50 runs as follows: under setting [1], 14.1 µM [rising, single point]; under setting [2], 22.4 µM [rising, partial curve].
`Cc1ccc(Cc2cnc(NC(=O)CN3CCOCC3)s2)cc1Cl`: the AC50 under setting [2] was 12.6 µM [rising, partial curve, poor fit].
For the compound `CCCN1C(=O)/C(=C\C=C2/Sc3ccccc3N2CC)SC1=S`, the AC50 under setting [2] is 4.47 µM [falling, single point].
As to `Cc1ccc(CO/N=C/C2=C(Cl)c3ccccc3CC2)cc1`, the AC50 under setting [1] is 12.6 µM [rising, single point].
On to `N#C/C(=C\c1coc2ccccc2c1=O)C(N)=S`, for which, under setting [2], the AC50 was 35.5 µM [falling, partial curve, poor fit].
Turning to `Cc1cccc2cc(CN(CC3CCCO3)C(=S)NCc3ccco3)c(=O)[nH]c12` (configuration not stated), the AC50 is 12.6 µM [falling, partial curve] under setting [1] and 12.6 µM [falling, partial curve] under setting [2].
Turning to `O=C(Oc1cccc(/C=N/Nc2nc(Nc3ccccc3)nc(N3CCOCC3)n2)c1)c1ccco1`, the AC50 reads like this: under setting [1], 1.58 µM [falling, partial curve]; under setting [2], 31.6 µM [rising, single point].
Turning to `COc1ccc2[nH]c(=O)c(CN(C(=O)c3ccco3)C(C)C)cc2c1`, under setting [2], the AC50 is 0.316 µM [falling, full curve, poor fit].
`[O-][N+]1=c2ccc(Nc3ccccc3)cc2=NC12CCCCC2`: the AC50 is, setting by setting: under setting [1], 10 µM [falling, partial curve]; under setting [2], 11.2 µM [falling, partial curve].
Regarding `CC(C)=CCC/C(C)=C/CC/C(C)=C/CSc1ccccc1C(=O)O`, the concentration at half-maximal activity (AC50) under setting [1] was 0.00501 µM [falling, full curve, poor fit] and the AC50 under setting [2] is 0.00398 µM [falling, full curve, poor fit].
Take `COc1ccc(/C=N/Nc2nnc(Cc3ccc(OC)c(OC)c3)c(=O)[nH]2)cc1OC`: the AC50 was 35.5 µM [falling, single point] under setting [1] and 35.5 µM [falling, single point] under setting [2].
`O=C(Nc1ccccn1)c1c(O)c2cccc3c2n(c1=O)CCC3`: the AC50 under setting [2] is 0.0112 µM [falling, full curve, poor fit].
As for `C/C(CC1CC2=C(CC1(C)C)C(C)(C)CCC2)=N\NC(N)=S` (configuration not stated), the AC50 is 31.6 µM [falling, single point] under setting [1] and 11.2 µM [falling, partial curve, poor fit] under setting [2].
With `COc1cc(CCC(=O)Nc2ccc(C)c(S(=O)(=O)N(C)C)c2)cc(OC)c1OC`, the AC50 under setting [1] was 8.91 µM [rising, partial curve] and the AC50 under setting [2] was 12.6 µM [rising, partial curve].
For `O=C(Nc1nc2ccccc2s1)c1ccc(N2CCCCC2)c([N+](=O)[O-])c1`, under setting [2], the AC50 was 12.6 µM [rising, partial curve].
Consider `Cc1noc(COc2ccccc2OCc2onc(C)c2Cl)c1Cl`, for which, under setting [2], the AC50 was 35.5 µM [rising, single point].
On the same count and under the same terms, the result for `O=C(Oc1c(Cl)cc(Cl)c2cccnc12)c1ccco1` reads 10 µM [rising, partial curve].
As for `Cc1ccc(C2CC2C(=O)NNC(=S)Nc2cccc(C)c2)cc1` (configuration not stated), the AC50 is 12.6 µM [rising, partial curve] under setting [1] and 25.1 µM [rising, single point] under setting [2].
`CC(=O)Nc1ccc(C)c([N+](=O)[O-])c1`: the AC50 under setting [1] is 8.91 µM [rising, partial curve].
Still for that read-out and setting: the figure for `CC1=C(C(=O)Nc2ccccc2)C(c2cc(CN3CCOCC3)cs2)C2=C(CCCC2=O)N1` (configuration not stated) is 3.55 µM [rising, full curve, poor fit].
As for `O=C(NCCc1nc2ccccc2[nH]1)/C(=C/c1ccc2c(c1)OCO2)NC(=O)c1ccc(Cl)cc1Cl`, under setting [2], the AC50 is 28.2 µM [rising, single point].
The same measure, in the same setting: the result for `CCOc1ccc(Cl)cc1CNCCCSc1nnnn1C` reads 0.00316 µM [falling, full curve, poor fit].
In the case of `Cc1ccc(NC(=O)c2ccc(S(=O)(=O)N3CCC(C)CC3)cc2)cc1`, the AC50 by setting is: under setting [1], 2.51 µM [falling, full curve, poor fit]; under setting [2], 1.58 µM [falling, full curve, poor fit].
Consider `N#CCCN(C(=O)COc1ccc(F)cc1Br)c1ccccc1F`, for which the AC50 under setting [2] was 0.0112 µM [rising, full curve, poor fit].
For `COc1ccc(-n2cnnc2SCC(=O)Nc2cc(S(=O)(=O)N3CCCCC3)ccc2C)cc1`, under setting [2], the AC50 is 14.1 µM [rising, single point].
With `COc1ccc(NC(=O)c2ccc(-c3ccc(-c4noc(C)n4)cc3C)cc2)cc1N1CCN(C)CC1`, the AC50 under setting [1] was 12.6 µM [falling, partial curve, poor fit] and the AC50 under setting [2] is 11.2 µM [falling, partial curve].
Turning to `O=C(COC(=O)c1cc(S(=O)(=O)Nc2ccccc2Cl)ccc1O)Nc1nc2ccccc2s1`, under setting [1], the AC50 is 10 µM [falling, single point].
As for `Cn1cnc([N+](=O)[O-])c1Oc1cccc(O)c1`, the AC50 under setting [2] is 31.6 µM [rising, single point].
For the compound `O=C(CSc1cccc[n+]1[O-])N1CCc2ccccc21`, the AC50 under setting [1] is 0.00447 µM [falling, full curve].
Turning to `O=C(COc1cccc(F)c1)N1c2ccccc2Sc2ccccc21`, the AC50 is 12.6 µM [rising, single point] under setting [1] and 14.1 µM [rising, single point] under setting [2].
In the case of `O=c1c(Br)c(Br)cnn1-c1ccccc1`, the half-maximal activity concentration (AC50) by setting is: under setting [1], 11.2 µM [falling, partial curve]; under setting [2], 3.16 µM [rising, partial curve].
`COC(=O)c1sccc1NC(=O)Cc1ccc(Br)cc1`: the AC50 was 0.00316 µM [falling, full curve, poor fit] under setting [1] and 0.0112 µM [falling, full curve, poor fit] under setting [2].
Consider `CCOC(=O)C(C)N1C(=O)S/C(=C/c2cc(C)n(-c3ccccn3)c2C)C1=O` (configuration not stated), for which the concentration at half-maximal activity (AC50) under setting [2] was 20 µM [rising, single point].
On to `Cc1cc(N2CCN(C(=O)c3ccco3)CC2)nc(-c2ccccc2)n1`, for which the AC50 is 35.5 µM [rising, single point] under setting [1] and 14.1 µM [rising, single point] under setting [2].
`CCCCNc1ccc(C(=O)OCCN(C)C)cc1`: the concentration at half-maximal activity (AC50) reads like this: under setting [1], 8.91 µM [falling, single point] and 0.891 nM [falling, full curve, poor fit]; under setting [2], 12.6 µM [falling, single point] and 3.98 µM [rising, full curve, poor fit].
Take `CCN1CCN(C(c2ccc(OC)cc2)c2nnnn2Cc2ccc3c(c2)OCO3)CC1` (configuration not stated): the AC50 under setting [1] was 0.0224 µM [rising, full curve, poor fit].
For the compound `O=[N+]([O-])c1ccccc1S(=O)(=O)NCc1ccc(F)cc1`, the concentration at half-maximal activity (AC50) reads like this: under setting [1], 0.00447 µM [rising, full curve, poor fit]; under setting [2], 0.00794 µM [rising, full curve, poor fit].
On to `O=C(Nc1ccc(Cl)cc1Cl)c1cc(S(=O)(=O)N2CCCCCC2)ccc1F`, for which, under setting [1], the AC50 was 0.251 µM [rising, full curve, poor fit].
With `COc1ccc(CCNC(=O)c2cc(-c3ccco3)on2)cc1OC`, the AC50 under setting [1] is 5.62 µM [falling, single point] and the half-maximal activity concentration (AC50) under setting [2] was 0.0794 µM [falling, full curve, poor fit].
Consider `COc1ccc(Br)cc1/C(C)=N/NC1=NCCN1`, for which, under setting [2], the concentration at half-maximal activity (AC50) was 11.2 µM [rising, partial curve].
For `COc1ccc(C(=O)c2ccc(OC)c(N)c2)cc1N`, the AC50 under setting [2] is 0.794 µM [rising, full curve, poor fit].
As to `Cc1ccc(NC(=O)CSc2ccc(-c3ccc4c(c3)OCO4)nn2)cc1F`, the AC50 under setting [2] is 12.6 µM [rising, partial curve, poor fit].
In the case of `O=C(N/C=C/c1ccccc1)Nc1ccc(Cl)cc1`, the AC50 is 35.5 µM [rising, single point] under setting [1] and 31.6 µM [rising, single point] under setting [2].
Consider `CCN(C(=O)CSc1nnc(Cn2nnc3ccccc32)o1)c1nc(-c2ccccc2)cs1`, for which, under setting [2], the AC50 is 22.4 µM [rising, single point].
Take `O=C(c1ccco1)N1CCN(CCCCOc2ccc(F)cc2)CC1`: the AC50 is 14.1 µM [rising, partial curve] under setting [1] and 7.08 µM [rising, partial curve, poor fit] under setting [2].
For the compound `Cc1ccc(C(=O)NCC(c2ccc3c(c2)OCO3)N2CCN(c3ccc(F)cc3)CC2)cc1` (configuration not stated), the concentration at half-maximal activity (AC50) was 35.5 µM [falling, single point] under setting [1] and 35.5 µM [falling, single point] under setting [2].
Consider `COc1cccc(-c2cc(NCc3ccc(OC)cc3OC)ncn2)c1`, for which the AC50 is 8.91 µM [falling, partial curve] under setting [1] and 8.91 µM [falling, partial curve] under setting [2].
Turning to `Cc1ccccc1C(=O)Nc1ccccc1C(=O)NCC(C)C`, under setting [2], the concentration at half-maximal activity (AC50) was 1.12 µM [falling, full curve, poor fit].

As usually defined, the AC50 is the concentration at which the activity in the assay is half-maximal.

These data come from PubChem BioAssay AID1487 (National Center for Advancing Translational Sciences (NCATS), 2009).
